Test results as given in publication PMC6328465.

By UniProt entry, the sequences of proteins in these tests, tags left out.
UniProt Q13574: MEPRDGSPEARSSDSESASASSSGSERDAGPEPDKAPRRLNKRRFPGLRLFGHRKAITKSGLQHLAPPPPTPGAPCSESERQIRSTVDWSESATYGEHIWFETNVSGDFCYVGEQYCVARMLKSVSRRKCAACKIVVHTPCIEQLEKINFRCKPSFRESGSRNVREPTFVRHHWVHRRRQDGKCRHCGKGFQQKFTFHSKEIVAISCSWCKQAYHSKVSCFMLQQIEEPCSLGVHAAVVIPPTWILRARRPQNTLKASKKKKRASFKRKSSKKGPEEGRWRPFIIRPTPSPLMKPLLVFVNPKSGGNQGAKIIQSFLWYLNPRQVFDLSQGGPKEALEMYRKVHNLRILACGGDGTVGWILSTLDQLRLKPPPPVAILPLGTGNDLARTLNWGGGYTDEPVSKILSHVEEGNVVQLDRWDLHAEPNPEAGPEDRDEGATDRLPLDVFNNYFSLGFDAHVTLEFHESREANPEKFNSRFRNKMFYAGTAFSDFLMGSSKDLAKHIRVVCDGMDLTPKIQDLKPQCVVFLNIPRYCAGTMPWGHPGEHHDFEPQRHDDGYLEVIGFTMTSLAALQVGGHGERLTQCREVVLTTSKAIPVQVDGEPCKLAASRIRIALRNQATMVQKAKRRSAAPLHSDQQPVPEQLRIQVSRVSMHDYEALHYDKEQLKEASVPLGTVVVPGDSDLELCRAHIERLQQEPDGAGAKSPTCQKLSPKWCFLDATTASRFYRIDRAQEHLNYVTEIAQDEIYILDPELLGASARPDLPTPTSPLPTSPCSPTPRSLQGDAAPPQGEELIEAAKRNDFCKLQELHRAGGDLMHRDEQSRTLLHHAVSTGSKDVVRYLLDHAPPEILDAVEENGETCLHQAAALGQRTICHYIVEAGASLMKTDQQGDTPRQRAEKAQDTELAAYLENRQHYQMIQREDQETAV
UniProt P27361: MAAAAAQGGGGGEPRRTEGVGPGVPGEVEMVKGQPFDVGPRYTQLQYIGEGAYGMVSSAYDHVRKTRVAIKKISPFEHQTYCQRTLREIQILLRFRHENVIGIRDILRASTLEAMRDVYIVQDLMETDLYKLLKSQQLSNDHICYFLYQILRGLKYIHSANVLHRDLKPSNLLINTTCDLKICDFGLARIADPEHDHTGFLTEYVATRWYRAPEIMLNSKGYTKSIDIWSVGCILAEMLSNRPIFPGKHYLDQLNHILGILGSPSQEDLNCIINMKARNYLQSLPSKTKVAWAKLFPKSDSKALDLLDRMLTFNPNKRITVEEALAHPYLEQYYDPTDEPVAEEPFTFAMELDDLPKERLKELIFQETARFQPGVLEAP
UniProt P28482: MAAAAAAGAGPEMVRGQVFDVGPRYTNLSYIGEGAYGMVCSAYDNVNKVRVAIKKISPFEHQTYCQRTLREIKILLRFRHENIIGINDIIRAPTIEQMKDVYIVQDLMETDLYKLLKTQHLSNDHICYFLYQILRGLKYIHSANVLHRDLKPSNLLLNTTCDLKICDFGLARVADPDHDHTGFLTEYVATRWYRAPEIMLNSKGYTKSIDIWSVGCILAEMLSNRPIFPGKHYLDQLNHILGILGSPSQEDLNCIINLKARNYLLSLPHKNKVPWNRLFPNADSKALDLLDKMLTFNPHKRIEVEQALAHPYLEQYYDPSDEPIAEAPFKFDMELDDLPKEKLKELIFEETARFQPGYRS

Target: 3 × FLAG-DGKZ (diacylglycerol kinase zeta) (UniProt Q13574)
Assay: affinity purification with mass spectrometry; 3xFLAG-DGKZ complex purified from stable HOS cells on anti-FLAG magnetic beads; SDS-PAGE bands absent from the control excised, in-gel trypsin digestion, LC-MS/MS (Q-Exactive)

Substance	binding
ERK1 (from UniProt P27361 1-379) (enzyme)	binds
ERK2 (from UniProt P28482 1-360) (enzyme)	binds

No constants are given. Whether binding was seen depends on the method and setting. In cells and extracts the contact can be indirect. These calls come from enrichment with a bait or labelling near it, and not all partners need be listed.
